{"source": "PubChem BioAssay AID1224826 (NIAID, 2016)", "aim": "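Knock-downs that raise or lower Tnf reporter signal after endotoxin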 (primary screen)", "system": "RAW264.7 G9 macrophages from mouse bearing reporters for p65 (GFP) and the Tnf promoter (mCherry)", "reagents": "siRNA pool against mouse genes, 100 nM", "duration": "16 h of LPS stimulation, after 2 days of siRNA transfection", "challenge": "bacterial lipopolysaccharide (Salmonella minnesota R595), 10 ng/ml", "detection": "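Imaged Tnf reporter mCherry in nuclei, minus background, normalised per plate to the median and expressed as robust z-scores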", "direction": "Tnf reporter robust z-score: higher = stronger Tnf promoter reporter signal after LPS", "hit rule": "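a well counts as active at a score of -1.3 or below (Tlr4 knock-down control median) or above 3 (raised signal); controls and wells holding fewer than 50 cells are excluded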", "calls": "active = Tnf reporter clearly lowered or raised; inactive = no clear change in Tnf reporter", "note": "Shown is an unselected part of about 17,000 reagents tested. About 1,110 of them (6.6%) count as active. 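Active means lowered or raised reporter signal; replicate intensities are raw and not normalised per plate.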 Unmarked entries are inactive. Not all columns of the deposit are shown."}
{"Target gene": "Papln", "Tnf reporter robust z-score": -0.99, "fewer than 50 cells in well": "enough cells in well"}
{"Target gene": "Abl1", "fewer than 50 cells in well": "fewer than 50 cells per well; well left out of calls"}
{"Target gene": "Or5m3", "Tnf reporter robust z-score": 2.24, "fewer than 50 cells in well": "enough cells in well"}
{"Target gene": "Dtymk", "Tnf reporter robust z-score": -0.39, "fewer than 50 cells in well": "enough cells in well"}
{"Target gene": "Tnmd", "fewer than 50 cells in well": "fewer than 50 cells per well; well left out of calls"}
{"Target gene": "As3mt", "fewer than 50 cells in well": "fewer than 50 cells per well; well left out of calls"}
{"Target gene": "Spin1", "Tnf reporter robust z-score": -0.72, "fewer than 50 cells in well": "enough cells in well"}
{"Target gene": "Txndc2", "Tnf reporter robust z-score": "-2.32 (active)", "fewer than 50 cells in well": "enough cells in well"}
{"Target gene": "Tmem234", "Tnf reporter robust z-score": 0.78, "fewer than 50 cells in well": "enough cells in well"}
{"Target gene": "Nr2c2", "Tnf reporter robust z-score": -0.7, "fewer than 50 cells in well": "enough cells in well"}
{"Target gene": "Tmem216", "Tnf reporter robust z-score": -0.35, "fewer than 50 cells in well": "enough cells in well"}
{"Target gene": "Sp2", "Tnf reporter robust z-score": -0.15, "fewer than 50 cells in well": "enough cells in well"}
{"Target gene": "Raet1b", "Tnf reporter robust z-score": 2.81, "fewer than 50 cells in well": "enough cells in well"}
{"Target gene": "Apon", "Tnf reporter robust z-score": -0.86, "fewer than 50 cells in well": "enough cells in well"}
{"Target gene": "Sri", "Tnf reporter robust z-score": "4.7 (active)", "fewer than 50 cells in well": "enough cells in well"}
{"Target gene": "Srpk1", "fewer than 50 cells in well": "fewer than 50 cells per well; well left out of calls"}
{"Target gene": "Enox2", "Tnf reporter robust z-score": -0.33, "fewer than 50 cells in well": "enough cells in well"}
{"Target gene": "Klk8", "Tnf reporter robust z-score": 0.07, "fewer than 50 cells in well": "enough cells in well"}
{"Target gene": "Nfe2l1", "Tnf reporter robust z-score": -0.08, "fewer than 50 cells in well": "enough cells in well"}
{"Target gene": "2310057J18Rik", "Tnf reporter robust z-score": 2.58, "fewer than 50 cells in well": "enough cells in well"}
{"Target gene": "Sirpa", "Tnf reporter robust z-score": -0.41, "fewer than 50 cells in well": "enough cells in well"}

No new results follow: entries from further up.
{"Target gene": "Nfe2l1", "Tnf reporter robust z-score": -0.08, "fewer than 50 cells in well": "enough cells in well"}
{"Target gene": "2310057J18Rik", "Tnf reporter robust z-score": 2.58, "fewer than 50 cells in well": "enough cells in well"}
